# According to PMC8267569, “Development of selective protease inhibitors via engineering of the bait region of human α2-macroglobulin” (The Journal of Biological Chemistry, 2021):
# Biological target: human matrix metalloprotease 2, activated (human)
# Experiment: native gel or EMSA; MMP2 added to A2M at 6:1 mol/mol MMP2:A2M in HBS with 10 mM CaCl2, 15 min at 37 °C, stopped with 20 mM EDTA; pore-limited native PAGE and reducing SDS-PAGE; both purified
binder,measurement,value
"recombinant wild-type human α2-macroglobulin (protein, UniProt P01023 24-1474) SVSGKPQYMVLVPSLLHTETTEKGCVLLSYLNETVTVSASLESVRGNRSLFTDLEAENDVLHCVAFAVPKSSSNEEVMFLTVQVKGPTQEFKKRTTVMVKNEDSLVFVQTDKSIYKPGQTVKFRVVSMDENFHPLNELIPLVYIQDPKGNRIAQWQSFQLEGGLKQFSFPLSSEPFQGSYKVVVQKKSGGRTEHPFTVEEFVLPKFEVQVTVPKIITILEEEMNVSVCGLYTYGKPVPGHVTVSICRKYSDASDCHGEDSQAFCEKFSGQLNSHGCFYQQVKTKVFQLKRKEYEMKLHTEAQIQEEGTVVELTGRQSSEITRTITKLSFVKVDSHFRQGIPFFGQVRLVDGKGVPIPNKVIFIRGNEANYYSNATTDEHGLVQFSINTTNVMGTSLTVRVNYKDRSPCYGYQWVSEEHEEAHHTAYLVFSPSKSFVHLEPMSHELPCGHTQTVQAHYILNGGTLLGLKKLSFYYLIMAKGGIVRTGTHGLLVKQEDMKGHFSISIPVKSDIAPVARLLIYAVLPTGDVIGDSAKYDVENCLANKVDLSFSPSQSLPASHAHLRVTAAPQSVCALRAVDQSVLLMKPDAELSASSVYNLLPEKDLTGFPGPLNDQDNEDCINRHNVYINGITYTPVSSTNEKDMYSFLEDMGLKAFTNSKIRKPKMCPQLQQYEMHGPEGLRVGFYESDVMGRGHARLVHVEEPHTETVRKYFPETWIWDLVVVNSAGVAEVGVTVPDTITEWKAGAFCLSEDAGLGISSTASLRAFQPFFVELTMPYSVIRGEAFTLKATVLNYLPKCIRVSVQLEASPAFLAVPVEKEQAPHCICANGRQTVSWAVTPKSLGNVNFTVSAEALESQELCGTEVPSVPEHGRKDTVIKPLLVEPEGLEKETTFNSLLCPSGGEVSEELSLKLPPNVVEESARASVSVLGDILGSAMQNTQNLLQMPYGCGEQNMVLFAPNIYVLDYLNETQQLTPEIKSKAIGYLNTGYQRQLNYKHYDGSYSTFGERYGRNQGNTWLTAFVLKTFAQARAYIFIDEAHITQALIWLSQRQKDNGCFRSSGSLLNNAIKGGVEDEVTLSAYITIALLEIPLTVTHPVVRNALFCLESAWKTAQEGDHGSHVYTKALLAYAFALAGNQDKRKEVLKSLNEEAVKKDNSVHWERPQKPKAPVGHFYEPQAPSAEVEMTSYVLLAYLTAQPAPTSEDLTSATNIVKWITKQQNAQGGFSSTQDTVVALHALSKYGAATFTRTGKAAQVTIQSSGTFSSKFQVDNNNRLLLQQVSLPELPGEYSMKVTGEGCVYLQTSLKYNILPEKEEFPFALGVQTLPQTCDEPKAHTSFQISLSVSYTGSRSASNMAIVDVKMVSGFIPLKPTVKMLERSNHVSRTEVSSNHVLIYLDKVSNQTLSLFFTVLQDVPVRDLKPAIVKVYDYYETDEFAIAEYNAPCSKDLGNA",binding,binds

# No constants are given. Whether binding was seen depends on the method and setting. Binding can be weak; no strength is given.
